# PubChem BioAssay AID445 (National Center for Advancing Translational Sciences (NCATS), 2006)
# The list shows a part of the results. Shown are side measurements of this screen, not its main read-out; they come without a call. Most of these compounds were active or inconclusive in the main read-out, so they are no random draw. The note in brackets gives the kind of curve behind each potency; many fits are weak.
# Experiment: IkB Signaling
# Settings: ABC-DLBCL IkBa-CBG/CBR dual luciferase ratio (green luciferase fused to IkBa over red control in OCI-Ly3 lymphoma cells), 4 h
# Outline: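 Curves were fitted separately to fusion (green), unfused (red) and ratio luminescence, then classed by r2, magnitude and activity. Cells: OCI-Ly3, 4 h compound plus doxycycline at 37C; 10 uM MG-132 defined full response.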
# [1] = measured here: control luc red channel unless noted
# [2] = measured here: IkB-luc green channel
# [3] = measured here: control luc red channel
smiles,measurement,setting,value
Cc1cccc(NC(=O)Cn2c(=O)n(Cc3ccc(C(=O)NCc4ccc5c(c4)OCO5)cc3)c(=O)c3ccccc32)c1,AC50,[1],"0.126 µM [rising, full curve, poor fit]"
O=C1C2C3C=CC(CO)(O3)C2C(=O)N1c1ccc(-c2ccccc2)cc1 (stereo not given),AC50,[1],"1.58 µM [falling, partial curve]"
CCOc1ccc(C(=O)c2cn(CC(=O)Nc3cc(OC)cc(OC)c3)c3ccc(F)cc3c2=O)cc1,AC50,[1],"25.1 µM [falling, single point]"
COc1ccc(NC(=O)Cn2c(=O)oc3cc(S(=O)(=O)NC(C)C)ccc32)cc1OC,AC50,[1],"0.631 µM [rising, full curve, poor fit]"
Cc1ccccc1Cn1c(CCCNC(=O)C2CCCCC2)nc2ccccc21,AC50,[1],"15.8 µM [falling, partial curve]"
Cc1noc(C)c1C(=O)Nc1sc(C)c(-c2ccccc2)c1C#N,AC50,[1],"2.51 µM [falling, full curve]"
CCCSCCCNC(=O)C1CCN(C(=O)c2cc3sccc3n2C)CC1,AC50,[1],"25.1 µM [falling, single point]"
Cc1nnc(N2CCC(C(=O)NC(C)C)CC2)c2nn(-c3ccc(Cl)cc3)c(C)c12,AC50,[1],"39.8 µM [falling, single point]"
CC(C)(C)C(=O)C1C(=O)c2ccccc2C1=O,AC50,[1],"15.8 µM [falling, full curve, poor fit]"
CSc1nc2sc3c(c2c(=O)n1C)CCCC3,AC50,[1],"1.58 µM [rising, full curve]"
Cc1ccc(NC(=O)CSc2nc3ccc(NC(=O)c4cccs4)cc3s2)c(C)c1,AC50,[1],"5.01 µM [falling, full curve]"
COc1cccc(Cn2c(=O)n(-c3cccc(Cl)c3C)c(=O)c3c4c(sc32)CN(C(C)=O)CC4)c1,AC50,[1],"39.8 µM [falling, single point]"
CCc1cnc2c(c1SCC(=O)Nc1ccc(Cl)cc1)c(=O)n(C)c(=O)n2C,AC50,[1],"3.98 µM [rising, single point] [measured here: IkB-luc green channel]"
COc1ccccc1CNC(=O)Cn1c(=O)oc2cc(S(=O)(=O)N3CCC(C)CC3)ccc21,AC50,[1],"15.8 µM [falling, partial curve]"
COc1cccc(CNCCSc2nnnn2C)c1OCc1ccc(Cl)cc1Cl,AC50,[1],"25.1 µM [falling, partial curve]"
COc1ccc(C2c3cccn3CCN2S(=O)(=O)c2ccccc2[N+](=O)[O-])cc1OC (stereo not given),AC50,[1],"0.316 µM [rising, full curve]"
O=C(NCC(c1ccc2c(c1)OCO2)N1CCOCC1)c1ccccc1F (stereo not given),AC50,[1],"6.31 µM [rising, partial curve]"
Cc1cccn2cc(-c3cccc(NS(=O)(=O)c4ccc(Cl)c(Cl)c4)c3)nc12,AC50,[1],"20 µM [falling, partial curve]"
CCc1ccc(CNC(=O)CCc2c(C)nn(-c3ccc(N4CCCCC4)nn3)c2C)cc1,AC50,[1],"15.8 µM [falling, partial curve]"
CCc1ccc2occ(CC(=O)Nc3c(C(=O)Nc4ccc(OC)cc4)oc4ccccc34)c2c1,AC50,[1],"12.6 µM [falling, single point]"
CC(CNC(=O)Cn1ccc2cc(S(=O)(=O)N3CCCCC3)ccc21)c1ccccc1 (stereo not given),AC50,[1],"12.6 µM [falling, partial curve]"
CCS(=O)(=O)N1CCc2cc(C(=O)Nc3ccc(C)c(Cl)c3)ccc21,AC50,[1],"39.8 µM [falling, single point]"
CCCCOc1ccc(C(=O)NCC2(N3CCN(C)CC3)CCCCC2)cc1,AC50,[1],"25.1 µM [falling, partial curve]"
CCOC(=O)C1CCN(c2nc(-c3ccc(Br)cc3)nc3ccccc23)CC1,AC50,[1],"2.51 µM [falling, partial curve]"
Fc1ccc(-c2nnc3ccc(N4CCc5ccccc5C4)nn23)cc1,AC50,[2],"31.6 µM [falling, single point]"
same,AC50,[3],"39.8 µM [falling, single point]"
O=C(CSc1nnc(-c2ccccc2O)o1)N1CCc2ccccc2C1,AC50,[1],"20 µM [falling, partial curve]"
Oc1ccc(-c2nc3ncccn3c2Nc2ccc3c(c2)OCCO3)cc1,AC50,[1],"10 µM [falling, partial curve]"
COc1cccc(CNC(=O)C2Cc3cc(S(=O)(=O)N4CCCCCC4)ccc3N2C(C)=O)c1 (stereo not given),AC50,[1],"3.16 µM [rising, single point]"
Cc1c(C(=O)N(C)C)sc2c1c(=O)n(-c1ccc(F)cc1)c(=O)n2Cc1cc(=O)n2ccccc2n1,AC50,[1],"10 µM [rising, partial curve, poor fit]"
CCC(=O)N1CCc2cc(Br)cc(S(=O)(=O)N3CCCC(C(=O)NCc4cccc(OC)c4)C3)c21 (stereo not given),AC50,[1],"7.94 µM [falling, full curve]"
Cc1nc2c(-c3ccccc3)c(C)nn2c(C)c1CCC(=O)N1CCN(c2ccccc2)CC1,AC50,[1],"10 µM [falling, partial curve]"
CC(=O)N1CCCc2ccc(NS(=O)(=O)c3ccc(C)c(C)c3)cc21,AC50,[1],"12.6 µM [falling, partial curve]"
Cn1nc(C(=O)N2CCN(c3cccc(Cl)c3)CC2)c2c1-c1ccccc1S(=O)(=O)C2,AC50,[1],"10 µM [falling, partial curve]"
CCCCCn1c(NCc2ccccc2OC)nc2ccccc21,AC50,[1],"25.1 µM [falling, single point]"
CCCS(=O)(=O)c1ncc(Cl)c(C(=O)Nc2c(C(=O)c3ccccc3)oc3ccccc23)n1,AC50,[1],"20 µM [falling, single point]"
Cc1cccc(-c2cc3nc4c(c(N5CCC6(CC5)OCCO6)n3n2)CCCC4)c1,AC50,[1],"12.6 µM [falling, partial curve]"
Cc1ccc(CCNC(=O)CCn2c(=O)c3cccn3c3ccc(F)cc32)cc1,AC50,[1],"12.6 µM [falling, partial curve]"
Fc1cccc(F)c1-c1nc(-c2ccncc2)no1,AC50,[2],"6.31 µM [rising, single point]"
same,AC50,[3],"7.94 µM [rising, partial curve]"

# A stretch of the results above, as a working copy:
smiles,measurement,setting,value
Cc1noc(C)c1C(=O)Nc1sc(C)c(-c2ccccc2)c1C#N,AC50,[1],"2.51 µM [falling, full curve]"
CCCSCCCNC(=O)C1CCN(C(=O)c2cc3sccc3n2C)CC1,AC50,[1],"25.1 µM [falling, single point]"
Cc1nnc(N2CCC(C(=O)NC(C)C)CC2)c2nn(-c3ccc(Cl)cc3)c(C)c12,AC50,[1],"39.8 µM [falling, single point]"
